Results as given in PubChem BioAssay AID1508600 (Functional Genomics Laboratory (NCATS/FGL), 2020).
The campaign covered roughly 53,000 sequences. About 3,700 (7%) were called active.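 The calls were made as follows: active = gene knockdowns whose robust z-score for IL-1 alpha signal is at least 2 or at most -2, so actives lie on both sides; inactive = the rest.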 This is one part of the list.

Test: Components of the Cytosolic LPS Sensing Pathway: Gene Identification via Genome-wide siRNA Screen;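 also: robust z of the log signal after scaling to non-targeting control siRNA wells of the plate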
Details: RAW264.7 macrophages, IL-1a HTRF, actives lie on both sides, screened at 100 nM (by protocol), cells primed 5 h with Pam3CSK4 first
Outline: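 Read-out: IL-1a HTRF on supernatant, divided by plate negative-control median ×100, log-transformed and converted to robust z-score. Cells were RAW264.7 given 100 nM siRNA, Pam3CSK4-primed 5 hours, then LipidA-transfected 24 hour.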
In the case of GGUCUGCAUCGACUCUGAGTT against Atox1, the z-score is reported as inactive: -1.19. With CCGAAAGAAAUGGACCCGATT against Pou2f2 the z-score was inactive: 0.516. For GGACGAUUUAAGGAUUUUUTT against Dcun1d1, the z-score was active: -2.4. With GCUAGACCUAAGGAGCAAATT against Axin1 the z-score was active: 3.59. In the case of CGAAAUCUUUUCUAACCACTT against Drd4, the z-score is reported as active: 6.59. In the case of GGUUCUGAACCAGCUGGAGTT against Chd3, the z-score is reported as active: 2.72. For GCAUCCCUUUGAUCGCUACTT against Serpina11, the z-score was inactive: -1.81. In the case of GCCAUUUUAGAGCAGAUCCTT against Rundc3a, the z-score is reported as active: -2.33. In the case of CGGUUCUUCCAUCAAAUGGTT against Prodh, the z-score is reported as inactive: 1.07. In the case of GGCUCACACUCCUGUUAAUTT against Fam20c, the z-score is reported as inactive: -1.02. For GGAAAGCAUCGAGGAAGACTT against Rbm28, the z-score was inactive: 1.03. With GGUGUUACAUAUGAGGAAUTT against Ociad1 the z-score was inactive: 1.61. For GCUAUCCGUGCUAGAUAUGTT against Elp3, the z-score was inactive: 0.604. For GGCCAGAAGAUCUUCACCATT against Furin, the z-score was inactive: 0.449. In the case of GGGCUAGACGAGAAUACUGTT against Bhmt2, the z-score is reported as inactive: 0.363. With GGCUUUGACAAUCUUUAAGTT against Ergic1 the z-score was inactive: -0.687. For GGGCUGAUCUUUUUAACUGTT against Tpm3, the z-score was inactive: -0.581. In the case of UCCUGGAGAUUUGACCGAGTT against Sp3os, the z-score is reported as inactive: -0.752. For GGUUUUACAAAUGAACUUGTT against Cacna2d1, the z-score was inactive: -0.405. For GGAGACACGACUUUAAAAATT against Slco1c1, the z-score was inactive: -0.708. With UUUGGUAUGGCUCUACUAUTT against Olfr523 the z-score was inactive: 0.952. In the case of CCUAAGACAUGCAACAUGATT against Adam25, the z-score is reported as inactive: 0.683. For GCAAGUCGAUACUGGGUGATT against T2, the z-score was inactive: 0.551. With GGUGGUAUUUGAAGAGACATT against Ddit4l the z-score was inactive: -0.0493. In the case of GGAGGACAAAGAGGCACAGTT against Gip, the z-score is reported as inactive: 0.414. For GGGCUUUGAUCAGUUCUACTT against Hoxd11, the z-score was inactive: 1.88. For CCAGAUACUCAAUUCUUUGTT against Bcl3, the z-score was inactive: 0.651. In the case of GGACCUGUAUUCUCAGGGATT against Lce1a2, the z-score is reported as inactive: -0.251. With GCGGGAAUGAAGAAACACGTT against Eea1 the z-score was inactive: 0.801. With GCUGAACGACCAAGUGUAATT against Lrrc15 the z-score was inactive: 1.51.
